Results deposited as PubChem BioAssay AID504774 (Drosophila RNAi Screening Center, 2011).

- Test: 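Fly genes whose loss alters survival after alkylation damage to DNA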 (primary screen)
- System: Drosophila Kc167 cells
- Reagent: long dsRNA against Drosophila genes, about 0.25 µg dsRNA per well
- Time to read-out: about 6 days: 3 days knock-down, then 3 days with or without MMS
- Conditions: methyl methanesulphonate 0.004% (w/v) for 3 days after knock-down
- Detection: 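Viability in wells given MMS, read as ATP luminescence, normalised by quantiles plate by plate and averaged across replicates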
- Reading the numbers: mean viability with MMS and viability with MMS: higher = more surviving cells after MMS
In all, the deposit lists about 23,000 reagents; below is a random part of those with a known target gene and a result. 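Values are quantile-normalised luminescence on an arbitrary scale; higher means more cells surviving MMS.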 Further read-outs or replicates are left out here.

bark (bark beetle) [DRSC00635] showed mean viability with MMS 3.57e6; viability with MMS, replicate 1 = 4.06e6. Depletion of Cec2 (Cecropin 2) [DRSC21885] came out at: mean viability with MMS 3.60e6; viability with MMS, replicate 1 = 4.03e6. Depletion of CG33998 [DRSC05747] resulted in: mean viability with MMS 3.57e6; viability with MMS, replicate 1 = 4.12e6. Gr5a (Gustatory receptor 5a) [DRSC18085] showed mean viability with MMS 3.61e6; viability with MMS, replicate 1 = 4.08e6. After knock-down of CG11902 [DRSC14434], the screen gave mean viability with MMS 3.37e6; viability with MMS, replicate 1 = 4.13e6. With knock-down of al (aristaless) [DRSC00799] the results were mean viability with MMS 3.46e6; viability with MMS, replicate 1 = 4.03e6.

Against CG13288 [DRSC09962] the deposit lists mean viability with MMS 3.51e6; viability with MMS, replicate 1 = 3.87e6. After knock-down of Su(fu) (Suppressor of fused) [DRSC16871], the screen gave mean viability with MMS 3.57e6; viability with MMS, replicate 1 = 4.03e6. CG8840 [DRSC00713] gave mean viability with MMS 3.67e6; viability with MMS, replicate 1 = 4.11e6. After knock-down of RpS15 (Ribosomal protein S15) [DRSC07151], the record shows mean viability with MMS 3.02e6; viability with MMS, replicate 1 = 3.59e6. Ir48c (Ionotropic receptor 48c) [DRSC06154] gave mean viability with MMS 3.61e6; viability with MMS, replicate 1 = 3.93e6. Depletion of trpl (transient receptor potential-like) [DRSC06728] resulted in: mean viability with MMS 3.45e6; viability with MMS, replicate 1 = 3.93e6.

Against trpl (transient receptor potential-like) [DRSC06729] the deposit lists mean viability with MMS 3.44e6; viability with MMS, replicate 1 = 3.72e6. For CG10853 [DRSC08164] the deposit lists mean viability with MMS 3.60e6; viability with MMS, replicate 1 = 3.99e6. Silencing of CG30373 [DRSC05081] came out at: mean viability with MMS 3.46e6; viability with MMS, replicate 1 = 3.91e6. eIF5 (eukaryotic translation initiation factor 5) [DRSC20165] showed mean viability with MMS 3.37e6; viability with MMS, replicate 1 = 3.86e6. CG11060 [DRSC06029] showed mean viability with MMS 3.71e6; viability with MMS, replicate 1 = 4.10e6. For CG13841 [DRSC14691], the values are mean viability with MMS 3.46e6; viability with MMS, replicate 1 = 3.86e6.

Knock-down of CG31008 [DRSC14028] gave: mean viability with MMS 3.49e6; viability with MMS, replicate 1 = 3.94e6. Silencing of BomS1 (Bomanin Short 1) [DRSC22678] gave: mean viability with MMS 3.59e6; viability with MMS, replicate 1 = 4.04e6. With knock-down of CG6553 [DRSC07002], the screen gave mean viability with MMS 3.29e6; viability with MMS, replicate 1 = 3.91e6. Silencing of CG15210 [DRSC19656] resulted in: mean viability with MMS 3.83e6; viability with MMS, replicate 1 = 4.33e6. Against CG14022 [DRSC02352], the values are mean viability with MMS 3.50e6; viability with MMS, replicate 1 = 4.00e6. Against CG12477 [DRSC09886] the deposit lists mean viability with MMS 3.34e6; viability with MMS, replicate 1 = 3.75e6.

Against CG31106 [DRSC14655], the values are mean viability with MMS 3.63e6; viability with MMS, replicate 1 = 4.07e6. After knock-down of CG7402 [DRSC10839] the results were mean viability with MMS 3.50e6; viability with MMS, replicate 1 = 3.92e6. For stet (stem cell tumor) [DRSC08246], the values are mean viability with MMS 3.58e6; viability with MMS, replicate 1 = 4.08e6. Against stet (stem cell tumor) [DRSC08283], the entry reads mean viability with MMS 3.69e6; viability with MMS, replicate 1 = 4.17e6. PLCXD [DRSC02427] showed mean viability with MMS 3.71e6; viability with MMS, replicate 1 = 4.00e6. CG9886 [DRSC00732] gave mean viability with MMS 3.58e6; viability with MMS, replicate 1 = 4.10e6.

Depletion of CG6481 [DRSC19995] resulted in: mean viability with MMS 3.22e6; viability with MMS, replicate 1 = 3.59e6. CR30374 (pseudo) [DRSC05080] showed mean viability with MMS 3.56e6; viability with MMS, replicate 1 = 4.05e6. SMC3 (Structural maintenance of chromosomes 3) [DRSC20227] showed mean viability with MMS 3.65e6; viability with MMS, replicate 1 = 4.21e6. For Akap200 (A kinase anchor protein 200) [DRSC01864] the deposit lists mean viability with MMS 3.36e6; viability with MMS, replicate 1 = 3.93e6. AP-1-2beta (Adaptor Protein complex 1/2, beta subunit) [DRSC19336] scored mean viability with MMS 3.43e6; viability with MMS, replicate 1 = 3.95e6.

Laid out differently: results already given
target gene,DRSC id,mean viability with MMS,"viability with MMS, replicate 1"
eIF5 (eukaryotic translation initiation factor 5),DRSC20165,3.37e6,3.86e6
CG11060,DRSC06029,3.71e6,4.10e6
CG13841,DRSC14691,3.46e6,3.86e6
CG31008,DRSC14028,3.49e6,3.94e6
